PMC7353009, “Identification of Substrates of Cytoplasmic Peptidyl-Prolyl Cis/Trans Isomerases and Their Collective Essentiality in Escherichia Coli” (International Journal of Molecular Sciences, 2020)
Results are given in words; binding and its absence hold for the method and conditions named. Binding seen in cells or lysates may run through a third protein. These calls come from enrichment with a bait or labelling near it, and not all partners need be listed. Tags and fused reporters may be left off the sequences shown.

T1: His6-tagged PpiB (wild type) (E. coli) (UniProt P23869)
T1 sequence: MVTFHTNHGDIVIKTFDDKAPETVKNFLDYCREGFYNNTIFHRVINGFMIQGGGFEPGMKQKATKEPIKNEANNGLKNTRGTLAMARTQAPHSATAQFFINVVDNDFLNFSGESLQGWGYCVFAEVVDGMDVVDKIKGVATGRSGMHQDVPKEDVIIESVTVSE

T2: Hexa-His-tagged FklB (wild type) (E. coli) (UniProt P0A9L3)
T2 sequence: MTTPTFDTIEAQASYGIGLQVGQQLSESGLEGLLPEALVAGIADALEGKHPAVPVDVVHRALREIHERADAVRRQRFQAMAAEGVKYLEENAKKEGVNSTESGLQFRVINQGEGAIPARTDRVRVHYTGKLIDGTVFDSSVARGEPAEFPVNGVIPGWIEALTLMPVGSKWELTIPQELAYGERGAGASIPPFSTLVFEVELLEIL

B1: SthA (protein, UniProt P27306 1-466)
chain: MPHSYDYDAIVIGSGPGGEGAAMGLVKQGARVAVIERYQNVGGGCTHWGTIPSKALRHAVSRIIEFNQNPLYSDHSRLLRSSFADILNHADNVINQQTRMRQGFYERNHCEILQGNARFVDEHTLALDCPDGSVETLTAEKFVIACGSRPYHPTDVDFTHPRIYDSDSILSMHHEPRHVLIYGAGVIGCEYASIFRGMDVKVDLINTRDRLLAFLDQEMSDSLSYHFWNSGVVIRHNEEYEKIEGCDDGVIMHLKSGKKLKADCLLYANGRTGNTDSLALQNIGLETDSRGQLKVNSMYQTAQPHVYAVGDVIGYPSLASAAYDQGRIAAQALVKGEATAHLIEDIPTGIYTIPEISSVGKTEQQLTAMKVPYEVGRAQFKHLARAQIVGMNVGTLKILFHRETKEILGIHCFGERAAEIIHIGQAIMEQKGGGNTIEYFVNTTFNYPTMAEAYRVAALNGLNRLF
B2: AccA (protein, UniProt P0ABD5 1-319)
chain: MSLNFLDFEQPIAELEAKIDSLTAVSRQDEKLDINIDEEVHRLREKSVELTRKIFADLGAWQIAQLARHPQRPYTLDYVRLAFDEFDELAGDRAYADDKAIVGGIARLDGRPVMIIGHQKGRETKEKIRRNFGMPAPEGYRKALRLMQMAERFKMPIITFIDTPGAYPGVGAEERGQSEAIARNLREMSRLGVPVVCTVIGEGGSGGALAIGVGDKVNMLQYSTYSVISPEGCASILWKSADKAPLAAEAMGIIAPRLKELKLIDSIIPEPLGGAHRNPEAMAASLKAQLLADLADLDVLSTEDLKNRRYQRLMSYGYA
B3: UspG (protein, UniProt P39177 1-142)
chain: MYKTIIMPVDVFEMELSDKAVRHAEFLAQDDGVIHLLHVLPGSASLSLHRFAADVRRFEEHLQHEAQERLQTMVSHFTIDPSRIKQHVRFGSVRDEVNELAEELGADVVVIGSRNPSISTHLLGSNASSVIRHANLPVLVVR
B4: CytR (protein, UniProt P0ACN7 1-341)
chain: MKAKKQETAATMKDVALKAKVSTATVSRALMNPDKVSQATRNRVEKAAREVGYLPQPMGRNVKRNESRTILVIVPDICDPFFSEIIRGIEVTAANHGYLVLIGDCAHQNQQEKTFIDLIITKQIDGMLLLGSRLPFDASIEEQRNLPPMVMANEFAPELELPTVHIDNLTAAFDAVNYLYEQGHKRIGCIAGPEEMPLCHYRLQGYVQALRRCGIMVDPQYIARGDFTFEAGSKAMQQLLDLPQPPTAVFCHSDVMALGALSQAKRQGLKVPEDLSIIGFDNIDLTQFCDPPLTTIAQPRYEIGREAMLLLLDQMQGQHVGSGSRLMDCELIIRGSTRALP
B5: NtrC (protein, UniProt P0AFB8 1-469)
chain: MQRGIVWVVDDDSSIRWVLERALAGAGLTCTTFENGAEVLEALASKTPDVLLSDIRMPGMDGLALLKQIKQRHPMLPVIIMTAHSDLDAAVSAYQQGAFDYLPKPFDIDEAVALVERAISHYQEQQQPRNVQLNGPTTDIIGEAPAMQDVFRIIGRLSRSSISVLINGESGTGKELVAHALHRHSPRAKAPFIALNMAAIPKDLIESELFGHEKGAFTGANTIRQGRFEQADGGTLFLDEIGDMPLDVQTRLLRVLADGQFYRVGGYAPVKVDVRIIAATHQNLEQRVQEGKFREDLFHRLNVIRVHLPPLRERREDIPRLARHFLQVAARELGVEAKLLHPETEAALTRLAWPGNVRQLENTCRWLTVMAAGQEVLIQDLPGELFESTVAESTSQMQPDSWATLLAQWADRALRSGHQNLLSEAQPELERTLLTTALRHTQGHKQEAARLLGWGRNTLTRKLKELGME
B6: MiaB (protein, UniProt P0AEI1 1-474)
chain: MTKKLHIKTWGCQMNEYDSSKMADLLDATHGYQLTDVAEEADVLLLNTCSIREKAQEKVFHQLGRWKLLKEKNPDLIIGVGGCVASQEGEHIRQRAHYVDIIFGPQTLHRLPEMINSVRGDRSPVVDISFPEIEKFDRLPEPRAEGPTAFVSIMEGCNKYCTYCVVPYTRGEEVSRPSDDILFEIAQLAAQGVREVNLLGQNVNAWRGENYDGTTGSFADLLRLVAAIDGIDRIRFTTSHPIEFTDDIIEVYRDTPELVSFLHLPVQSGSDRILNLMGRTHTALEYKAIIRKLRAARPDIQISSDFIVGFPGETTEDFEKTMKLIADVNFDMSYSFIFSARPGTPAADMVDDVPEEEKKQRLYILQERINQQAMAWSRRMLGTTQRILVEGTSRKSIMELSGRTENNRVVNFEGTPDMIGKFVDVEITDVYPNSLRGKVVRTEDEMGLRVAETPESVIARTRKENDLGVGYYQP
B7: RNA helicase DeaD (protein, UniProt P0A9P6 1-629)
chain: MAEFETTFADLGLKAPILEALNDLGYEKPSPIQAECIPHLLNGRDVLGMAQTGSGKTAAFSLPLLQNLDPELKAPQILVLAPTRELAVQVAEAMTDFSKHMRGVNVVALYGGQRYDVQLRALRQGPQIVVGTPGRLLDHLKRGTLDLSKLSGLVLDEADEMLRMGFIEDVETIMAQIPEGHQTALFSATMPEAIRRITRRFMKEPQEVRIQSSVTTRPDISQSYWTVWGMRKNEALVRFLEAEDFDAAIIFVRTKNATLEVAEALERNGYNSAALNGDMNQALREQTLERLKDGRLDILIATDVAARGLDVERISLVVNYDIPMDSESYVHRIGRTGRAGRAGRALLFVENRERRLLRNIERTMKLTIPEVELPNAELLGKRRLEKFAAKVQQQLESSDLDQYRALLSKIQPTAEGEELDLETLAAALLKMAQGERTLIVPPDAPMRPKREFRDRDDRGPRDRNDRGPRGDREDRPRRERRDVGDMQLYRIEVGRDDGVEVRHIVGAIANEGDISSRYIGNIKLFASHSTIELPKGMPGEVLQHFTRTRILNKPMNMQLLGDAQPHTGGERRGGGRGFGGERREGGRNFSGERREGGRGDGRRFSGERREGRAPRRDDSTGRRRFGGDA
B8: ompF/C transcriptional regulator OmpR (protein, UniProt P0AA16 1-239)
chain: MQENYKILVVDDDMRLRALLERYLTEQGFQVRSVANAEQMDRLLTRESFHLMVLDLMLPGEDGLSICRRLRSQSNPMPIIMVTAKGEEVDRIVGLEIGADDYIPKPFNPRELLARIRAVLRRQANELPGAPSQEEAVIAFGKFKLNLGTREMFREDEPMPLTSGEFAVLKALVSHPREPLSRDKLMNLARGREYSAMERSIDVQISRLRRMVEEDPAHPRYIQTVWGLGYVFVPDGSKA
B9: plasmid copy number regulator PcnB (protein, UniProt P0ABF1 11-465)
chain: KVLSREESEAEQAVARPQVTVIPREQHAISRKDISENALKVMYRLNKAGYEAWLVGGGVRDLLLGKKPKDFDVTTNATPEQVRKLFRNCRLVGRRFRLAHVMFGPEIIEVATFRGHHEGNVSDRTTSQRGQNGMLLRDNIFGSIEEDAQRRDFTINSLYYSVADFTVRDYVGGMKDLKDGVIRLIGNPETRYREDPVRMLRAVRFAAKLGMRISPETAEPIPRLATLLNDIPPARLFEESLKLLQAGYGYETYKLLCEYHLFQPLFPTITRYFTENGDSPMERIIEQVLKNTDTRIHNDMRVNPAFLFAAMFWYPLLETAQKIAQESGLTYHDAFALAMNDVLDEACRSLAIPKRLTTLTRDIWQLQLRMSRRQGKRAWKLLEHPKFRAAYDLLALRAEVERNAELQRLVKWWGEFQVSAPPDQKGMLNELDEEPSPRRRTRRPRKRAPRREGTA
B10: RlmG (protein, UniProt P42596 1-378)
chain: MSHLDNGFRSLTLQRFPATDDVNPLQAWEAADEYLLQQLDDTEIRGPVLILNDAFGALSCALAEHKPYSIGDSYISELATRENLRLNGIDESSVKFLDSTADYPQQPGVVLIKVPKTLALLEQQLRALRKVVTSDTRIIAGAKARDIHTSTLELFEKVLGPTTTTLAWKKARLINCTFNEPQLADAPQTVSWKLEGTDWTIHNHANVFSRTGLDIGARFFMQHLPENLEGEIVDLGCGNGVIGLTLLDKNPQAKVVFVDESPMAVASSRLNVETNMPEALDRCEFMINNALSGVEPFRFNAVLCNPPFHQQHALTDNVAWEMFHHARRCLKINGELYIVANRHLDYFHKLKKIFGNCTTIATNNKFVVLKAVKLGRRR
B11: RlmJ (protein, UniProt P37634 1-280)
chain: MLSYRHSFHAGNHADVLKHTVQSLIIESLKEKDKPFLYLDTHAGAGRYQLGSEHAERTGEYLEGIARIWQQDDLPAELEAYINVVKHFNRSGQLRYYPGSPLIARLLLREQDSLQLTELHPSDYPLLRSEFQKDSRARVEKADGFQQLKAKLPPVSRRGLILIDPPYEMKTDYQAVVSGIAEGYKRFATGIYALWYPVVLRQQIKRMIHDLEATGIRKILQIELAVLPDSDRRGMTASGMIVINPPWKLEQQMNNVLPWLHSKLVPAGTGHATVSWIVPE
B12: TreC (protein, UniProt P28904 1-551)
chain: MTHLPHWWQNGVIYQIYPKSFQDTTGSGTGDLRGVIQHLDYLHKLGVDAIWLTPFYVSPQVDNGYDVANYTAIDPTYGTLDDFDELVTQAKSRGIRIILDMVFNHTSTQHAWFREALNKESPYRQFYIWRDGEPETPPNNWRSKFGGSAWRWHAESEQYYLHLFAPEQADLNWENPAVRAELKKVCEFWADRGVDGLRLDVVNLISKDPRFPEDLDGDGRRFYTDGPRAHEFLHEMNRDVFTPRGLMTVGEMSSTSLEHCQRYAALTGSELSMTFNFHHLKVDYPGGEKWTLAKPDFVALKTLFRHWQQGMHNVAWNALFWCNHDQPRIVSRFGDEGEYRVPAAKMLAMVLHGMQGTPYIYQGEEIGMTNPHFTRITDYRDVESLNMFAELRNDGRDADELLAILASKSRDNSRTPMQWSNGDNAGFTAGEPWIGLGDNYQQINVEAALADDSSVFYTYQKLIALRKQEAILTWGNYQDLLPNSPVLWCYRREWKGQTLLVIANLSREIQPWQAGQMRGNWQLVMHNYEEASPQPCAMNLRPFEAVWWLQK

Biological target: T1, His6-tagged PpiB (wild type) (E. coli)
Assay: affinity purification with mass spectrometry; His6-tagged PPI induced with 0.1 mM IPTG in an E. coli T7 express derivative lacking all six PPIs (SR21984); soluble lysate on Ni-NTA beads, 50 mM NaH2PO4, 300 mM NaCl, eluted with a linear imidazole gradient (50-500 mM); co-eluting proteins resolved by SDS-PAGE (for FkpB also 2D gels) and identified by MALDI-TOF

binding, binds:
B1
B2
B3
B4
B5
B6
B7

Biological target: T2, Hexa-His-tagged FklB (wild type) (E. coli)
Assay: as above

binding, binds:
B8
B9
B10
B11
B12
